The effect of the compound repeats well; differences between the knockouts mostly do not.
Test system: HCC-38
Assay: relative cell number vs DMSO control (72 h) (% of DMSO); higher = less growth inhibition (more cells)
Method: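 QMAP-Seq: a pool of 5 breast cancer cell lines (ZR-75-1, SKBR3, HCC-38, MDA-MB-231, BT-20), each carrying 12 doxycycline-inducible Cas9 sgRNA perturbations (11 knockouts plus non-targeting sgNT), was treated with compounds for 72 h at four 10-fold doses (10 nM-10 uM or 1 nM-1 uM range). Barcodes were amplified and sequenced, and cell number was interpolated from 293T spike-in standard curves. The result is expressed as % of the median of DMSO wells. Two biological replicates.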

N#Cc1ccc(COC[C@H]2O[C@@H](n3c(NCc4ccc(Cl)c(Cl)c4)nc4c(N)ncnc43)[C@H](O)[C@@H]2O)cc1
Conditions | relative cell number
sgRNA knockout: sgATF3, 10 nM | 90.4
sgRNA knockout: sgATF3, 100 nM | 88.7
sgRNA knockout: sgATF3, 1000 nM | 98.8
sgRNA knockout: sgATF3, 10000 nM | 97.3
sgRNA knockout: sgATF4, 10 nM | 84.3
sgRNA knockout: sgATF4, 100 nM | 103
sgRNA knockout: sgATF4, 1000 nM | 95.4
sgRNA knockout: sgATF4, 10000 nM | 102
sgRNA knockout: sgATF6, 10 nM | 109.4
sgRNA knockout: sgATF6, 100 nM | 95
sgRNA knockout: sgATF6, 1000 nM | 119
sgRNA knockout: sgATF6, 10000 nM | 95.8
sgRNA knockout: sgATG7, 10 nM | 94.6
sgRNA knockout: sgATG7, 100 nM | 95.9
sgRNA knockout: sgATG7, 1000 nM | 100
sgRNA knockout: sgATG7, 10000 nM | 95.1
sgRNA knockout: sgERN1, 10 nM | 95.3
sgRNA knockout: sgERN1, 100 nM | 90.7
sgRNA knockout: sgERN1, 1000 nM | 107
sgRNA knockout: sgERN1, 10000 nM | 101
sgRNA knockout: sgHSF1, 10 nM | 113
sgRNA knockout: sgHSF1, 100 nM | 94.2
sgRNA knockout: sgHSF1, 1000 nM | 110.65
sgRNA knockout: sgHSF1, 10000 nM | 87.1
sgRNA knockout: sgHSF2, 10 nM | 96.1
sgRNA knockout: sgHSF2, 100 nM | 92.88
sgRNA knockout: sgHSF2, 1000 nM | 99.1
sgRNA knockout: sgHSF2, 10000 nM | 99.7
sgRNA knockout: sgKEAP1, 10 nM | 101
sgRNA knockout: sgKEAP1, 100 nM | 91.5
sgRNA knockout: sgKEAP1, 1000 nM | 116
sgRNA knockout: sgKEAP1, 10000 nM | 101
sgRNA knockout: sgNFE2L2, 10 nM | 81.1
sgRNA knockout: sgNFE2L2, 100 nM | 97.7
sgRNA knockout: sgNFE2L2, 1000 nM | 97.2
sgRNA knockout: sgNFE2L2, 10000 nM | 91.2
sgRNA knockout: sgSLC35F2, 10 nM | 89
sgRNA knockout: sgSLC35F2, 100 nM | 103
sgRNA knockout: sgSLC35F2, 1000 nM | 99.4
sgRNA knockout: sgSLC35F2, 10000 nM | 90.9
sgRNA knockout: sgXBP1, 10 nM | 82.1
sgRNA knockout: sgXBP1, 100 nM | 101
sgRNA knockout: sgXBP1, 1000 nM | 101
sgRNA knockout: sgXBP1, 10000 nM | 98.4

O=C(NOCC(O)CO)c1cc(Br)c(F)c(F)c1Nc1ccc(I)cc1F (configuration not stated)
Conditions | relative cell number
sgRNA knockout: sgATF3, 10 nM | 99.5
sgRNA knockout: sgATF3, 100 nM | 84.5
sgRNA knockout: sgATF3, 1000 nM | 88.7
sgRNA knockout: sgATF3, 10000 nM | 85.8
sgRNA knockout: sgATF4, 10 nM | 91
sgRNA knockout: sgATF4, 100 nM | 80.1
sgRNA knockout: sgATF4, 1000 nM | 76.2
sgRNA knockout: sgATF4, 10000 nM | 89.4
sgRNA knockout: sgATF6, 10 nM | 110
sgRNA knockout: sgATF6, 100 nM | 93.2
sgRNA knockout: sgATF6, 1000 nM | 88.1
sgRNA knockout: sgATF6, 10000 nM | 93.8
sgRNA knockout: sgATG7, 10 nM | 93.2
sgRNA knockout: sgATG7, 100 nM | 81.5
sgRNA knockout: sgATG7, 1000 nM | 83.1
sgRNA knockout: sgATG7, 10000 nM | 89.8
sgRNA knockout: sgERN1, 10 nM | 105
sgRNA knockout: sgERN1, 100 nM | 85.6
sgRNA knockout: sgERN1, 1000 nM | 84.1
sgRNA knockout: sgERN1, 10000 nM | 91.3
sgRNA knockout: sgHSF1, 10 nM | 116
sgRNA knockout: sgHSF1, 100 nM | 97.8
sgRNA knockout: sgHSF1, 1000 nM | 92.9
sgRNA knockout: sgHSF1, 10000 nM | 90.7
sgRNA knockout: sgHSF2, 10 nM | 106
sgRNA knockout: sgHSF2, 100 nM | 87.3
sgRNA knockout: sgHSF2, 1000 nM | 82.3
sgRNA knockout: sgHSF2, 10000 nM | 93.2
sgRNA knockout: sgKEAP1, 10 nM | 121
sgRNA knockout: sgKEAP1, 100 nM | 99.7
sgRNA knockout: sgKEAP1, 1000 nM | 91.6
sgRNA knockout: sgKEAP1, 10000 nM | 98.6
sgRNA knockout: sgNFE2L2, 10 nM | 93.2
sgRNA knockout: sgNFE2L2, 100 nM | 75.5
sgRNA knockout: sgNFE2L2, 1000 nM | 75.6
sgRNA knockout: sgNFE2L2, 10000 nM | 85.7
sgRNA knockout: sgSLC35F2, 10 nM | 94.6
sgRNA knockout: sgSLC35F2, 100 nM | 72.6
sgRNA knockout: sgSLC35F2, 1000 nM | 72.4
sgRNA knockout: sgSLC35F2, 10000 nM | 92.6
sgRNA knockout: sgXBP1, 10 nM | 85.7
sgRNA knockout: sgXBP1, 100 nM | 83.1
sgRNA knockout: sgXBP1, 1000 nM | 89.3
sgRNA knockout: sgXBP1, 10000 nM | 91.4

O=c1[nH]cc(F)c(=O)[nH]1 [5-Fluorouracil]
Conditions | relative cell number
sgRNA knockout: sgATF3, 10 nM | 93.2
sgRNA knockout: sgATF3, 100 nM | 112
sgRNA knockout: sgATF3, 1000 nM | 97.8
sgRNA knockout: sgATF3, 10000 nM | 67
sgRNA knockout: sgATF4, 10 nM | 97.3
sgRNA knockout: sgATF4, 100 nM | 110
sgRNA knockout: sgATF4, 1000 nM | 107
sgRNA knockout: sgATF4, 10000 nM | 68.2
sgRNA knockout: sgATF6, 10 nM | 100
sgRNA knockout: sgATF6, 100 nM | 116
sgRNA knockout: sgATF6, 1000 nM | 114.4
sgRNA knockout: sgATF6, 10000 nM | 69.6
sgRNA knockout: sgATG7, 10 nM | 97.8
sgRNA knockout: sgATG7, 100 nM | 103
sgRNA knockout: sgATG7, 1000 nM | 110
sgRNA knockout: sgATG7, 10000 nM | 68.2
sgRNA knockout: sgERN1, 10 nM | 91.6
sgRNA knockout: sgERN1, 100 nM | 116
sgRNA knockout: sgERN1, 1000 nM | 95.7
sgRNA knockout: sgERN1, 10000 nM | 61.2
sgRNA knockout: sgHSF1, 10 nM | 97.8
sgRNA knockout: sgHSF1, 100 nM | 93.2
sgRNA knockout: sgHSF1, 1000 nM | 102
sgRNA knockout: sgHSF1, 10000 nM | 71.04
sgRNA knockout: sgHSF2, 10 nM | 98.1
sgRNA knockout: sgHSF2, 100 nM | 109
sgRNA knockout: sgHSF2, 1000 nM | 112
sgRNA knockout: sgHSF2, 10000 nM | 74
sgRNA knockout: sgKEAP1, 10 nM | 116
sgRNA knockout: sgKEAP1, 100 nM | 113
sgRNA knockout: sgKEAP1, 1000 nM | 103
sgRNA knockout: sgKEAP1, 10000 nM | 81
sgRNA knockout: sgNFE2L2, 10 nM | 92.5
sgRNA knockout: sgNFE2L2, 100 nM | 110
sgRNA knockout: sgNFE2L2, 1000 nM | 113
sgRNA knockout: sgNFE2L2, 10000 nM | 68
sgRNA knockout: sgSLC35F2, 10 nM | 91.2
sgRNA knockout: sgSLC35F2, 100 nM | 113
sgRNA knockout: sgSLC35F2, 1000 nM | 117
sgRNA knockout: sgSLC35F2, 10000 nM | 61.2
sgRNA knockout: sgXBP1, 10 nM | 97.1
sgRNA knockout: sgXBP1, 100 nM | 118
sgRNA knockout: sgXBP1, 1000 nM | 109
sgRNA knockout: sgXBP1, 10000 nM | 69.9
